Seven molecules from PubChem BioAssay AID242 (DTP/NCI, 2004) can be followed below.

The assay concerns BDF1 mice, Lymphoma 8 ip, survival T/C. The experiment in a line: NCI In Vivo Anticancer Drug Screen. Data for tumor model Lymphoma 8 (intraperitoneal) in B6D2F1 (BDF1) mice. The note with it: T/C endpoint: survival time, mean or median, higher T/C = longer survival. As for the experimental part: The antitumor activity of compounds was measured in mice bearing transplantable tumors. Survival or tumor size were measured and the results are expressed as the measurement made in the treated group (T) divided by the measurement made in the vehicle treated control group (C). The tumor model used in this assay is Lymphoma 8 (intraperitoneal) in B6D2F1 (BDF1) mice

The mark [1] stands for this setting: dose: 200.0 mg/kg/injection, schedule: Q01DX015 (ip), vehicle: carboxymethylcellulose (CMC).
[2] abbreviates: dose: 200.0 mg/kg/injection, schedule: Q01DX010 (ip), vehicle: saline.
Where [3] appears, read: dose: 500.0 mg/kg/injection, schedule: Q01DX015 (ip), vehicle: carboxymethylcellulose (CMC).

Molecules are shown by their SMILES. The list shows only some results of the screen, not a fair sample: it is rich in T/C values a quarter to a half above the control, in often repeated tests (any T/C) and in doses without a T/C. Other doses and runs of a compound stand elsewhere. T/C is the treated group as % of the vehicle group. Some doses have a count of surviving animals in place of a T/C: the source holds a T/C of zero for them, seemingly a mark for toxic or unscored doses. Some survivor counts are full or nearly so, which does not show that the dose was tolerated: survival well below the control is almost never listed, so the zero probably covers shortened survival too. Survivors were counted at the toxicity check, usually on the fifth day, unless a day is given; later deaths do not show. Schedules are NCI's codes, taken here to give the interval after Q, in days (D) or hours (H), and the number of doses after X. For survival time, the PubChem record calls one and a half times the control and up active, and a quarter to a half above the control has no call in these data; cut-offs in other NCI protocols can differ.

Regarding `CC(=O)OCC1OC(n2cnc3c(=S)nc[nH]c32)C(OC(C)=O)C1OC(C)=O` (centres undefined), under setting [1], the survivor count is recorded as 10 of 10.

As for `CC(=O)OCC1OC(n2cnc3c(=S)nc(N)[nH]c32)C(OC(C)=O)C1OC(C)=O` (centres undefined), the survivor count (dose: 100.0 mg/kg/injection, schedule: Q01DX015 (ip), vehicle: other) is on record as 10 of 10. Regarding `CN(C)C(=S)N=Nc1c(O)[nH]c2ccccc12`, the T/C (dose: 50.0 mg/kg/injection, schedule: Q01DX015 (ip), vehicle: carboxymethylcellulose (CMC)) is 131 % of control. Also, the survivor count under setting [1] is given as 10 of 10. Regarding `CSc1ncnc2nc[nH]c12`, the survivor count under setting [2] was 6 of 6. On to `COc1ccc(CSc2ncnc3nc[nH]c23)cc1`, for which the survivor count under setting [3] is recorded as 10 of 10.

With `CC(=O)Nc1ccc2nc3ccc(NC(C)=O)cc3[n+](-c3ccccc3)c2c1`, the survivor count under setting [2] was 6 of 6. For the molecule `Nc1c(Br)cc2c(c1Br)Cc1cc([N+](=O)[O-])ccc1-2`, the survivor count was 10 of 10 (dose: 250.0 mg/kg/injection, schedule: Q01DX015 (ip), vehicle: carboxymethylcellulose (CMC)) and 10 of 10 under setting [3].
